A short description of this experiment: qHTS Assay for Lipid Storage Modulators in Drosophila S3 Cells.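 As to cell number change: cells counted by Cell Tracker Red CMTPX staining in the red channel.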 The conditions noted are these: BODIPY lipid droplet fluorescence, 18-24 h; for cell number change: measured here: cell count max response, cells fed with added oleic acid. In short, it runs like this:
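Laser-scanning cytometry quantifies lipid droplet accumulation (500–530 nm total intensity; droplet/cell object ratio) in oleic acid-fed (400 uM added) Drosophila S3 cells treated with a concentration series. 20 uM Triacsin C defined 100% inhibition.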

The mark [1] stands for this setting: measured here: lipid fluorescence (Fed channel) AC50, cells fed with added oleic acid.
The mark [2] stands for this setting: measured here: cell number channel AC50, cells fed with added oleic acid.

The list shows a part of the results. The main result of the screen is listed elsewhere. These columns were measured beside it and carry no call. Compounds called inactive in the main read-out are mostly missing here. Words in brackets tell the shape of the fitted curve; partial curves, single points and poor fits give uncertain potencies.

With `COc1ccc(CCNC(=O)CCCN2C(=O)c3ccccc3C2=O)cc1`, the cell number change was 18.8%. Further, the AC50 – broadly, the concentration at which the activity in the assay is half-maximal – under setting [1] is 0.651 µM [falling, single point].

With `Cc1cccc(OCC(=O)NC2CCCCCC2)c1C`, the cell number change was -7.92%. For the same compound, under setting [1], the concentration at half-maximal activity (AC50) was 0.0164 µM [falling, full curve, poor fit].

Turning to `COc1ccc(Nc2oc(COc3ccc(OC)cc3)nc2C#N)cc1`, the cell number change is -25.5%. Under setting [1], the AC50 was 14.6 µM [falling, single point].

In the case of `Cc1ccc2cccc(OCCCOc3ccccc3F)c2n1`, the cell number change is -7.33%.

On to `CCN(CC)c1nc(-c2ccccc2)cc(C(F)(F)F)c1C#N`, for which the cell number change is 52.4%. In addition, the AC50 under setting [2] is 1.84 µM [rising, full curve].

Regarding `Cc1ccc2nc3c(cc(C(=O)NCc4cccnc4)c(=N)n3C(C)C)c(=O)n2c1`, the cell number change is -18.7%. Also, the AC50 under setting [2] was 4.61 µM [falling, single point]. Further, the AC50 under setting [1] was 1.16 µM [falling, full curve].

With `O=C(COC(=O)CCc1c[nH]c2ccccc12)NCc1ccc2c(c1)OCO2`, the cell number change was -5.54%. For the same compound, the AC50 under setting [2] is 6.51 µM [falling, single point]. Further, the AC50 under setting [1] is 6.51 µM [falling, single point].

For `Cc1cc(C)nc(N(C#N)Cc2ccccc2)n1`, the cell number change was -38.2%. The AC50 under setting [2] was 5.17 µM [falling, full curve, poor fit]. For the same compound, the AC50 under setting [1] is 18.4 µM [falling, partial curve].

For the compound `Cc1nc2sc3c(c2c(=O)o1)CCC3`, the cell number change was -53.3%. In addition, the AC50 under setting [2] was 29.1 µM [falling, single point]. In addition, under setting [1], the AC50 was 4.61 µM [falling, partial curve].

As to `Cc1ccc(NC(=O)c2ccccc2O)cc1`, the cell number change is -36.2%. The AC50 under setting [2] is 29.1 µM [falling, single point]. In addition, the AC50 under setting [1] is 29.1 µM [falling, single point].

For `CC(=O)N1CCCc2cc(S(=O)(=O)N3CCCC(C(=O)N4CCN(c5ccccc5)CC4)C3)ccc21` (centres undefined), the cell number change is -17.7%.

Turning to `COc1cc(CNCc2ccco2)cc(OC)c1O`, the cell number change came to 16.4%. Further, the AC50 under setting [1] is 29.1 µM [rising, single point].

Regarding `COc1ccc(Nc2nc(N)nc(CN3CCC(Cc4ccccc4)CC3)n2)cc1`, the cell number change was found to be 4.41%. Also, under setting [1], the AC50 is 14.6 µM [rising, partial curve].

As for `COC(=O)c1cc(Cl)c(NC(=O)c2ccc(C(C)(C)C)cc2)cc1OC`, the cell number change came out at 3.84%.

For `COc1ccc(CNC(=O)c2cc3cc(OC)ccc3oc2=O)cc1`, the cell number change worked out at 21.4%. Also, the AC50 under setting [1] is 29.1 µM [rising, partial curve].

With `COc1cc(/C=N/n2cnnc2)ccc1OC(=O)c1ccncc1`, the cell number change is -22.3%. The AC50 under setting [1] is 5.17 µM [falling, full curve, poor fit].

As to `Cn1c(=O)c2nc(-c3ccccc3)oc2c2ccccc21`, the cell number change was 22.9%. Also, the AC50 under setting [2] is 0.00461 µM [rising, full curve, poor fit]. Moreover, under setting [1], the AC50 is 2.91 µM [rising, single point].

With `Clc1cccc(Cl)c1Cn1cnc2c(N3CCCCCC3)ncnc21`, the cell number change is 302%. Also, the AC50 under setting [2] is 14.6 µM [rising, partial curve]. Also, under setting [1], the AC50 was 2.91 µM [rising, partial curve].

On to `CC(=O)C1=C(O)C(=O)N(Cc2ccco2)C1c1ccccc1` (centres undefined), for which the cell number change was determined as 8.76%. The concentration at half-maximal activity (AC50) under setting [1] is 6.51 µM [rising, partial curve, poor fit].

Consider `COc1ccc2c(c1)cc1c(=O)n(CC(=O)NC(C)CCc3ccccc3)nc(C)n12` (centres undefined), for which the cell number change was determined as 63.7%. Moreover, the half-maximal activity concentration (AC50) under setting [2] is 11.6 µM [rising, partial curve].

For the compound `COC(=O)c1ccccc1NC(=O)c1cc(-c2ccc(O)cc2)on1`, the cell number change is 2.29%.

`CCC(=O)N1CCN(c2ccc(NC(=S)NC(=O)c3cccc([N+](=O)[O-])c3)cc2)CC1`: the cell number change is -45.5%. Also, the concentration at half-maximal activity (AC50) under setting [2] was 16.4 µM [falling, partial curve, poor fit]. Moreover, under setting [1], the AC50 was 14.6 µM [falling, partial curve].

In the case of `COc1ccccc1CNS(=O)(=O)N(C)C`, the cell number change was -25.6%. In addition, the AC50 under setting [1] is 20.6 µM [falling, single point].

Turning to `Cn1c(-c2ccccc2F)cc2onc(-c3ccccc3)c2c1=O`, the cell number change came out at 37.3%. In addition, under setting [2], the AC50 was 29.1 µM [rising, single point]. Besides, the AC50 under setting [1] was 18.4 µM [rising, partial curve].

On to `c1ccc(CNc2nc(-c3ccccn3)nc3ccccc23)cc1`, for which the cell number change is -61.1%. In addition, the AC50 under setting [2] was 29.1 µM [falling, single point]. For the same compound, the AC50 under setting [1] was 29.1 µM [falling, single point].

As for `CCOC(=O)CNC(=O)Cn1cnc2c(nnn2-c2ccc(OC)cc2)c1=O`, the cell number change came to 41.4%. In addition, the AC50 under setting [2] is 6.51 µM [rising, full curve, poor fit].

As for `O=C(NC1CCCC1)c1n[nH]c2ccccc12`, the cell number change stood at 25.2%. Further, the AC50 under setting [2] is 0.13 µM [rising, full curve, poor fit].

Regarding `O=C(CCl)N(C1CCCC1)C1CCS(=O)(=O)C1` (centres undefined), the cell number change stood at 23.1%. For the same compound, under setting [1], the AC50 was 29.1 µM [falling, partial curve, poor fit].

Consider `Cn1c(N)c(C(=O)CSc2nn(-c3ccccc3)c(=S)s2)c(=O)n(C)c1=O`, for which the cell number change was found to be 81.5%. The AC50 under setting [2] is 1.46 µM [rising, full curve].

As for `Cc1ccc(-n2ncc3c(Nc4cccc(C(=O)O)c4)ncnc32)cc1`, the cell number change was -27.4%. In addition, the concentration at half-maximal activity (AC50) under setting [2] is 0.651 µM [falling, full curve].

Consider `CCCOc1ccc(C(=O)CCC(=O)OCC(=O)Nc2cc(C)on2)cc1`, for which the cell number change amounted to 1.29%. In addition, the AC50 under setting [1] is 23.1 µM [falling, partial curve].

For `O=C(CC(Cc1ccccc1)c1ccco1)NCc1ccco1` (centres undefined), the cell number change was found to be 25.9%. Also, the concentration at half-maximal activity (AC50) under setting [1] is 9.2 µM [rising, partial curve].

Turning to `CCOC(=O)Cn1c(=O)oc2cc(S(=O)(=O)N(C)c3cccc(C)c3)ccc21`, the cell number change came out at 13.7%.

As for `COc1ccc(NC(=O)CCc2nc3ccccc3s2)c(OC)c1`, the cell number change amounted to 9.18%. Further, the AC50 under setting [2] was 0.411 µM [falling, single point].

`CSc1ccccc1NC(=O)Cn1c([N+](=O)[O-])cnc1C`: the cell number change came out at 31.2%. The half-maximal activity concentration (AC50) under setting [2] was 29.1 µM [rising, single point].

As to `O=C(NCC(c1cccs1)N1CCOCC1)C1CCN(S(=O)(=O)c2cccc(C(F)(F)F)c2)CC1` (centres undefined), the AC50 under setting [1] is 29.1 µM [rising, single point].

With `c1cnn(-c2cc(N3CCOCC3)ncn2)c1`, the cell number change is -19%. Moreover, the AC50 under setting [2] was 3.26 µM [falling, full curve, poor fit]. The AC50 under setting [1] was 0.58 µM [falling, single point].

(Values after PubChem BioAssay AID2685 (National Center for Advancing Translational Sciences (NCATS), 2010).)
